Test results taken from patent publication US9874567B2, “Kits to assay kinase activity” (Fluidigm Canada Inc., priority 2006, dated 2018).
At least one structure is not confirmed: it was looked up by name or label, or the drawing left a doubt.

Chains of the proteins cited; added tags and fusions are not shown.
UniProt P68400, whole entry: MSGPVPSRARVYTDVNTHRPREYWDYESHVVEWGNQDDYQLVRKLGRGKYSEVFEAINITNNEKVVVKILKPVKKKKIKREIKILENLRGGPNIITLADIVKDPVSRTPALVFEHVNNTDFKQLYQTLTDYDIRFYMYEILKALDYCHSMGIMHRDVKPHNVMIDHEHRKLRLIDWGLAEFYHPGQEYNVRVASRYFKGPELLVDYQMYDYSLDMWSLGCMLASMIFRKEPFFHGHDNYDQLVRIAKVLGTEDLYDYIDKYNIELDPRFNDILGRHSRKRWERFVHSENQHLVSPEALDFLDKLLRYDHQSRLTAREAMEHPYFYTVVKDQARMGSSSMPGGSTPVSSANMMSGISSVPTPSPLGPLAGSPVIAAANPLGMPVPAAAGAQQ

Key:
[1] = target: casein kinase II (Homo sapiens, UniProt P68400); conditions: recent study; cited from earlier work
[2] = tested on: Pl3K; test: Pl3K activity in lysates of PDGF-stimulated A2780 cells, biotin-PtdIn(3,4,5)P3 on streptavidin plate, TiO2 / ICP-MS read-out; type: cell-based; conditions: A2780 cells incubated with inhibitor (25 uM) prior to PDGF stimulation; expected outcome
[3] = tested on: Akt; test: multiplex kinase assay with uniquely labeled beads carrying peptide substrates, A2780 cell lysates, TiO2 / particle elemental analysis; type: cell-based; conditions: inhibitor used during cell cultivation; expected outcome
[4] = tested on: Pl 3-kinase; conditions: cited from earlier work

| Compound | inhibition of other known kinases [1] | phosphorylation of the immobilised lipid substrate by activated cellular Pl3K [2] | Ti signal on the uniquely labeled bead with the Akt substrate [3] | specificity for Pl 3-kinase [4] |
| --- | --- | --- | --- | --- |
| O=c1cc(N2CCOCC2)oc2c(-c3ccccc3)cccc12 [LY294002] | inhibit one other known kinase (casein kinase II) | not phosphorylated | no concomitant Ti present |  |
| COC[C@H]1OC(=O)c2coc3c2[C@@]1(C)C1=C(C3=O)[C@@H]2CCC(=O)[C@@]2(C)C[C@H]1OC(C)=O [Wortmannin, wortmannin] |  |  |  | not specific for Pl 3-kinase |
